Measurements: the supplement of paper PMC10849652
The list shows a part of the results.

Protein sequences, listed by entry. Tags and fused reporters are not part of them. Lines headed by an entry give the natural chain unless they say otherwise; changes in a name come on top.
UniProt Q96ER3: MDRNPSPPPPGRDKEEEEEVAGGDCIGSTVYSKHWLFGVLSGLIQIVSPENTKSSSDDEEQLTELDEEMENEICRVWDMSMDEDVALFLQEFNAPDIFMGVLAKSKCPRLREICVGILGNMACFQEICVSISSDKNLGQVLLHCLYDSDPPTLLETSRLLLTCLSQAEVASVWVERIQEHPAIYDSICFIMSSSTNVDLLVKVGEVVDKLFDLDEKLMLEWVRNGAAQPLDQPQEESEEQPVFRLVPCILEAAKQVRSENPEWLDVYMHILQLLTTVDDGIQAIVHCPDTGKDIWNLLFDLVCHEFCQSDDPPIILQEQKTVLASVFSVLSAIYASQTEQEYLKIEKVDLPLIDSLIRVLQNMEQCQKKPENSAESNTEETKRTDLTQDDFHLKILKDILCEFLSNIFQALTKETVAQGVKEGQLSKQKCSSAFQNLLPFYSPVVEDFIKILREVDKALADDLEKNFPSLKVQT
UniProt Q9NTJ5: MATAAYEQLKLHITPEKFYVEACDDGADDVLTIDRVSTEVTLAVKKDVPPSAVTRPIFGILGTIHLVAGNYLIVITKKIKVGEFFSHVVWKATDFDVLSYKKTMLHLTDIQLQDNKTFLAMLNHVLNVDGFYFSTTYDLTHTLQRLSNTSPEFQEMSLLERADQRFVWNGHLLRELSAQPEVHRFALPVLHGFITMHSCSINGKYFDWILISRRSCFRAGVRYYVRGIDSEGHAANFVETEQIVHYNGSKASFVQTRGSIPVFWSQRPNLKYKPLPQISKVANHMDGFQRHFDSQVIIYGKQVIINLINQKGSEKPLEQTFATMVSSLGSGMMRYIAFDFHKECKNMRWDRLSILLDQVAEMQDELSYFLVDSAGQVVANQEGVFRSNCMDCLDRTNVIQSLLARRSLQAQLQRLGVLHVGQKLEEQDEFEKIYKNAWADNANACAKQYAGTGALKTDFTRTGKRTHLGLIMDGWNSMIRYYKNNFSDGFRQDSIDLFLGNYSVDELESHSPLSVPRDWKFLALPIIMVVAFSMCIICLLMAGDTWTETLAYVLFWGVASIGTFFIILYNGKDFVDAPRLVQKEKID
UniProt Q9NSI8: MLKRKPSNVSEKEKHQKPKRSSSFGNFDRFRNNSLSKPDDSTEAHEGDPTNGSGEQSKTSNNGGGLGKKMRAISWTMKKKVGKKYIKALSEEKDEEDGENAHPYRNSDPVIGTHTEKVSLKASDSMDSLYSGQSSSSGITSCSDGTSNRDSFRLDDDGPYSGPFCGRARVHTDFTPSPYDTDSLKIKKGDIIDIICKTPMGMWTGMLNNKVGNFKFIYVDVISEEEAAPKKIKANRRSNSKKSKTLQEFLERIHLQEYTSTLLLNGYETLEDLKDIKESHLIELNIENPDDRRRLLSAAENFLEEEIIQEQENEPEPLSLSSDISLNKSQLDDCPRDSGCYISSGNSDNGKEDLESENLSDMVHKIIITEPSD
UniProt P29034: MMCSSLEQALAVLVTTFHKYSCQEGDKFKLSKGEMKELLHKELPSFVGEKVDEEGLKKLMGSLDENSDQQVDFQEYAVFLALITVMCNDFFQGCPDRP
UniProt Q9HB40: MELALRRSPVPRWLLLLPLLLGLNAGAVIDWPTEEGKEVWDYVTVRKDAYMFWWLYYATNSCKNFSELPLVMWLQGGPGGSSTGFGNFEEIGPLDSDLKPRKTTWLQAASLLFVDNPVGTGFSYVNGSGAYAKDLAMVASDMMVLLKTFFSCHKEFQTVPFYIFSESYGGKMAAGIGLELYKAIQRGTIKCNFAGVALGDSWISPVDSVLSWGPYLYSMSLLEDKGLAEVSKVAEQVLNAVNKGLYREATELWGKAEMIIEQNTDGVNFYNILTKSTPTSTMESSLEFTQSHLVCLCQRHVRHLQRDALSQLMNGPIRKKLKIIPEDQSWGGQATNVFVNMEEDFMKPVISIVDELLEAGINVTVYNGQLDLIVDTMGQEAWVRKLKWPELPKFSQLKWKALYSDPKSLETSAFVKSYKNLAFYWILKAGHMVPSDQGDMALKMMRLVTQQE
UniProt Q7L099: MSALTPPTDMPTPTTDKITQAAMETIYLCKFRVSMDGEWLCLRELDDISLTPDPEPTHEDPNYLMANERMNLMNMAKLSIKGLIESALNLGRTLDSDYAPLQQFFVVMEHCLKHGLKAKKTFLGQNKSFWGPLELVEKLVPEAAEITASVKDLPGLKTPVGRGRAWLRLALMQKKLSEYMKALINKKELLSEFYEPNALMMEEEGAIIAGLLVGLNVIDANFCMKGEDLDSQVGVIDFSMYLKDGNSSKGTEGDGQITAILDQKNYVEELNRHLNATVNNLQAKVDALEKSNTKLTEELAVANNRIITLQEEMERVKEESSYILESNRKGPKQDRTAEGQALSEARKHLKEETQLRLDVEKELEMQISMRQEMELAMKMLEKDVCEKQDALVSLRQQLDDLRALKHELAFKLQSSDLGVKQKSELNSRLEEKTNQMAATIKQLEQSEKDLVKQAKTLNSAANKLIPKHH
UniProt Q96DX4: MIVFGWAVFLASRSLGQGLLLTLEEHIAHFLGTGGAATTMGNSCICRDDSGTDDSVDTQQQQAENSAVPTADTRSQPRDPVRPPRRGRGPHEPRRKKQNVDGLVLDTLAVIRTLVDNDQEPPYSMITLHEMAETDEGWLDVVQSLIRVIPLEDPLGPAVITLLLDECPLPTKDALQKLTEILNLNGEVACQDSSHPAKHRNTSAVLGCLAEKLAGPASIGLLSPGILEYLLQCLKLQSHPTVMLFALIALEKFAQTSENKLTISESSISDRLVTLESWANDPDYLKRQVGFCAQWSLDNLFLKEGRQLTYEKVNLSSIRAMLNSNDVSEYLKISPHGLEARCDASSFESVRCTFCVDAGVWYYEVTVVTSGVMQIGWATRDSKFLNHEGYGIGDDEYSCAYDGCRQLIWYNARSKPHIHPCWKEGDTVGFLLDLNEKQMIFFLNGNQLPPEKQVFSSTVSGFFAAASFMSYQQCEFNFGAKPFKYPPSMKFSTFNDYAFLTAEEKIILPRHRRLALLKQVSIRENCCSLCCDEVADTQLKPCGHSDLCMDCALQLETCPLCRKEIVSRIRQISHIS
UniProt Q8NBX0: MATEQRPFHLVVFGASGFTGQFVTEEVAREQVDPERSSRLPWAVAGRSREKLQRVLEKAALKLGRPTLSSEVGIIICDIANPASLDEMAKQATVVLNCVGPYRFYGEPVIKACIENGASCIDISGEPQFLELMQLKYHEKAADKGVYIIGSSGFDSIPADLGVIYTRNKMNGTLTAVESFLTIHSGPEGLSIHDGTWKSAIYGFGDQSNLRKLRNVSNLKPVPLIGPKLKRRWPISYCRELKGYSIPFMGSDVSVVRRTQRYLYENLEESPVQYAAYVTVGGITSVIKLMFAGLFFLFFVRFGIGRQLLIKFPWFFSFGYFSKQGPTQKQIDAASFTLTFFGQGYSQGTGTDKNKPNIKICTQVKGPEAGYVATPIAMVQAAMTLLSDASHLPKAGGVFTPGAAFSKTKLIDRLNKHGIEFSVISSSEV
UniProt Q15436: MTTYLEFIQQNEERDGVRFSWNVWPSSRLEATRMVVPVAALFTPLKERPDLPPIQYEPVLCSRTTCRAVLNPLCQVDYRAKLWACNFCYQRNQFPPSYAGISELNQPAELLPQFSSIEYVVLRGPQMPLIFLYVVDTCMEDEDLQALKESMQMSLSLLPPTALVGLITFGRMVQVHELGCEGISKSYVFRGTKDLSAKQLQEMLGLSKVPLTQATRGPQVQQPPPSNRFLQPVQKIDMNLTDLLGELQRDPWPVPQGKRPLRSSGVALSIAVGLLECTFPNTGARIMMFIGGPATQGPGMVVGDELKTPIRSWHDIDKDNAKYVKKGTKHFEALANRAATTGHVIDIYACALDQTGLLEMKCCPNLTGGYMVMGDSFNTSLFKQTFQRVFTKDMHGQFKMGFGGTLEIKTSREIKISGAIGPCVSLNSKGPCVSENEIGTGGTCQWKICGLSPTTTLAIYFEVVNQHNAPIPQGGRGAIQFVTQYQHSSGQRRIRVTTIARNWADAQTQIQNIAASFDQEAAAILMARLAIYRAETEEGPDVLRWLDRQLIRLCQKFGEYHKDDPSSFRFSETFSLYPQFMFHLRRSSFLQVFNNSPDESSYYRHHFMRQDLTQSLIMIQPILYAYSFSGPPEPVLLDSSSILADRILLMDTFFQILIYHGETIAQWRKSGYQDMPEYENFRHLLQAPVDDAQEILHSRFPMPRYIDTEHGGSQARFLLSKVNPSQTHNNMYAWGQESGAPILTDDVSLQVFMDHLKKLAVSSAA
UniProt O14828: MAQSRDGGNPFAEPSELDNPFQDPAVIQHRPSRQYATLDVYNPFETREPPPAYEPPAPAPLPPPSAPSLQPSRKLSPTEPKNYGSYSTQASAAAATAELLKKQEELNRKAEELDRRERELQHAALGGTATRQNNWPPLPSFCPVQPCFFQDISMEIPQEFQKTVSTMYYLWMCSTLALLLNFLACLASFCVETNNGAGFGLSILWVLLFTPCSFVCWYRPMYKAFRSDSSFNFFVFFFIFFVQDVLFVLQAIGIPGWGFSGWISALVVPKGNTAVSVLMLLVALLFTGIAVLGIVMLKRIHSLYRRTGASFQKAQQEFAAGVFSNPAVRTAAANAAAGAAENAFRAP
UniProt Q96IZ7: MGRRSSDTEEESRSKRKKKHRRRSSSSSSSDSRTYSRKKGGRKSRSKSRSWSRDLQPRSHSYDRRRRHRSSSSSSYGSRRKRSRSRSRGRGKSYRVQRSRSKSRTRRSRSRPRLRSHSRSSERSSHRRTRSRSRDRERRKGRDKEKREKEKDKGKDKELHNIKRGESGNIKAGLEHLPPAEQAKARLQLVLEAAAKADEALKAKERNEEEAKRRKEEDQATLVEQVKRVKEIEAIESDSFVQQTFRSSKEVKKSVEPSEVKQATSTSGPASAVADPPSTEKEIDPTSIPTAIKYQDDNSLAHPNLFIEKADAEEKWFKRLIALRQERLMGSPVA
UniProt O94885: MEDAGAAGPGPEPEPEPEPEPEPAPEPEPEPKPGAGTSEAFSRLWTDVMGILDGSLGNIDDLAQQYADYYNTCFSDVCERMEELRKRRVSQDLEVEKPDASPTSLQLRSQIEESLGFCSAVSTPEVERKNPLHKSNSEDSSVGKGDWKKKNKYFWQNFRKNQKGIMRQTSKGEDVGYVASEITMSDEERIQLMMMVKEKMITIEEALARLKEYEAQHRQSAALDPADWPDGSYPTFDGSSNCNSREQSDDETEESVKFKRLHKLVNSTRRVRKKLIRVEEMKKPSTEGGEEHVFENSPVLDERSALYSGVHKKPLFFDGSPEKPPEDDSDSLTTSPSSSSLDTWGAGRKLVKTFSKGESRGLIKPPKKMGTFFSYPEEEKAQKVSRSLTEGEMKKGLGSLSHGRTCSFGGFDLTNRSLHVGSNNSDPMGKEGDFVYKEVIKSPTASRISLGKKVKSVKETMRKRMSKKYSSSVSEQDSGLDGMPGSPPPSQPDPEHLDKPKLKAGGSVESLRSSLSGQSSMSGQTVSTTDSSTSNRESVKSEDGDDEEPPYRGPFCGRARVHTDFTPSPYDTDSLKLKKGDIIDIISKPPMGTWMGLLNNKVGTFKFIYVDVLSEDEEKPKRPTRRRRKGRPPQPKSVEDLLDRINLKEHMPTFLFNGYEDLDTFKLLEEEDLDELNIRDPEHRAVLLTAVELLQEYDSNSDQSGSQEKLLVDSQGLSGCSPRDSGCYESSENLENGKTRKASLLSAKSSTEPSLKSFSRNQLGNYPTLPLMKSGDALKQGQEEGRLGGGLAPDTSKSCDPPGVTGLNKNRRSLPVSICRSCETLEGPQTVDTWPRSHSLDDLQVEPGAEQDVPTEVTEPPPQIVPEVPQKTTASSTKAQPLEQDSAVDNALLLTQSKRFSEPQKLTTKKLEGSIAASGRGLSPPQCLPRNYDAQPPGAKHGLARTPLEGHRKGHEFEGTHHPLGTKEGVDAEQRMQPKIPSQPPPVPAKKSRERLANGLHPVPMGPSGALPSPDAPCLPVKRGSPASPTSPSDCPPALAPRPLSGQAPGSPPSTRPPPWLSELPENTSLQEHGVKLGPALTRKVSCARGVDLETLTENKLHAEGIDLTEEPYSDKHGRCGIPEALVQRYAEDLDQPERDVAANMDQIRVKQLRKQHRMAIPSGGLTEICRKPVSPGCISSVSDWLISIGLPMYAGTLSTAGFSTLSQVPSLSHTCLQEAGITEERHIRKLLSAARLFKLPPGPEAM
UniProt O00560: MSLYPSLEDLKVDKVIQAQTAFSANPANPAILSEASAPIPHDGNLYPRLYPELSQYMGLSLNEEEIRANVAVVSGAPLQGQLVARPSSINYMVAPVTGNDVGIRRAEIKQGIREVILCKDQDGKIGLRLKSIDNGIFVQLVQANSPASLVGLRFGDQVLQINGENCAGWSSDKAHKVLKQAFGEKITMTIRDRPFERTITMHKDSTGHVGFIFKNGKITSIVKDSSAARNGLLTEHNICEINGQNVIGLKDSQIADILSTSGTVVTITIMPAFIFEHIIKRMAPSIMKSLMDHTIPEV
UniProt Q5VUM1: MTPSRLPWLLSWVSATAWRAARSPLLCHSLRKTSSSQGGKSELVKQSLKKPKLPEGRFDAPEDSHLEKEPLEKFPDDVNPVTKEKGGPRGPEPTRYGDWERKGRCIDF

Compound: CN(C)CC(=O)Nc1ccc2[nH]c(=O)c3ccccc3c2c1
Assay: log2 fold change, soluble protein after heating vs DMSO (PISA); higher = thermal stabilisation; K562 cells, 10 uM, 30 min; active = over 0.2 and 3.5 SD of the protein, either way, in both replicates (recomputed)
How it was run: (§1)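 Soluble protein was quantified by TMTpro 16plex LC-MS/MS after channel sums were equalised. It was obtained as the supernatant after 21,000xg for 90 min from pooled aliquots of K562 cells (2×10^6 cells/mL, 10 μM compound, 30 min) heated for 3 min across 48°C-58°C and extracted in PBS with 0.5% NP-40 at 4°C. Thermal stability values are relative to control samples and come from duplicates. They are given as log2 fold changes.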

Target	log2 fold change
SAAL1 (UniProt Q96ER3)	inactive: -0.025
RUFY1 (UniProt Q96T51)	inactive: 0.033
RUNX1 isoform 8 (UniProt Q01196)	inactive: 0.06
SACM1L (UniProt Q9NTJ5)	inactive: 0.033
SART3, A0A499FI31	inactive: 0.017
SCD (UniProt O00767)	inactive: 0.008
SDHAF2 (UniProt Q9NX18)	inactive: -0.004
SCAMP2 (UniProt O15127)	inactive: 0.061
SAMSN1 isoform 3 (UniProt Q9NSI8)	inactive: 0.017
S100A2 (UniProt P29034)	inactive: -0.241
SEC24A (UniProt O95486)	inactive: 0.065
SCYL3 isoform 2 (UniProt Q8IZE3)	inactive: -0.021
RRP36 (UniProt Q96EU6)	inactive: -0.114
SCPEP1 (UniProt Q9HB40)	inactive: -0.001
SEC31A (UniProt O94979)	inactive: 0.046
SCAMP2 (UniProt H3BUB6)	inactive: -0.201
SEC16A isoform 5 (UniProt O15027)	inactive: 0.1
SCAF8 isoform 2 (UniProt Q9UPN6)	inactive: 0.1

Target	log2 fold change
RUFY3 isoform 3 (UniProt Q7L099)	inactive: 0.011
SDHB, A0A087WWT1	inactive: -0.074
RSRC2 (UniProt Q7L4I2)	inactive: 0.007
SAFB2 (UniProt Q14151)	inactive: -0.061
RSL1D1 (UniProt O76021)	inactive: -0.214
RSPRY1 (UniProt Q96DX4)	inactive: -0.014
SDHC (UniProt Q99643)	inactive: 0.264
RTF2 (UniProt Q9BY42)	inactive: 0.005
SEC23IP (UniProt Q9Y6Y8)	inactive: 0.012
SCAF11 (UniProt Q99590)	inactive: -0.142
SCCPDH (UniProt Q8NBX0)	inactive: 0.039
RRP9 (UniProt O43818)	inactive: -0.113
SCG3 (UniProt Q8WXD2)	inactive: -0.099
SEC23A (UniProt Q15436)	inactive: 0.052
SCAMP3 isoform 2 (UniProt O14828)	inactive: -0.051
RRP12 (UniProt Q5JTH9)	inactive: -0.046
RSRC1 (UniProt Q96IZ7)	inactive: -0.005
SASH1 (UniProt O94885)	inactive: 0.042

Compound: CN(CCOC1=CC=C(C=C1)C[C@H]2C(=O)NC(=O)S2)C3=CC=CC=N3 (racemic) [rosiglitazone]
Assay: as above
How it was run: as §1

Target	log2 fold change
S100A2 (UniProt P29034)	inactive: 0.655
SDHB, A0A087WWT1	inactive: 0.345
SCAMP3 isoform 2 (UniProt O14828)	inactive: -0.207

Compound: CN1C2=C(C3=C1C(=O)N(N=C3)CC4=CC(=CC=C4)N)SC(=C2)S(=O)C
Assay: as above
How it was run: as §1

Target	log2 fold change
SAAL1 (UniProt Q96ER3)	inactive: -0.012
SDCBP isoform 2 (UniProt O00560)	inactive: -0.196
RUFY1 (UniProt Q96T51)	inactive: 0.032
RUNX1 isoform 8 (UniProt Q01196)	inactive: -0.027
SACM1L (UniProt Q9NTJ5)	inactive: -0.076
SART3, A0A499FI31	inactive: -0.056
SCD (UniProt O00767)	inactive: 0.025
SDHAF2 (UniProt Q9NX18)	inactive: 0.037
SCAMP2 (UniProt O15127)	inactive: -0.006
SAMSN1 isoform 3 (UniProt Q9NSI8)	inactive: 0
S100A2 (UniProt P29034)	inactive: 0.594
SEC24A (UniProt O95486)	inactive: -0.054
SCYL3 isoform 2 (UniProt Q8IZE3)	inactive: -0.05
RRP36 (UniProt Q96EU6)	inactive: 0.316
SCPEP1 (UniProt Q9HB40)	inactive: 0.019
SEC31A (UniProt O94979)	inactive: 0.051
SCAMP2 (UniProt H3BUB6)	inactive: 0.064
SEC16A isoform 5 (UniProt O15027)	inactive: 0.078
SCAF8 isoform 2 (UniProt Q9UPN6)	inactive: -0.045

Target	log2 fold change
RUFY3 isoform 3 (UniProt Q7L099)	inactive: -0.015
SDHB, A0A087WWT1	inactive: 0.155
RSRC2 (UniProt Q7L4I2)	inactive: -0.028
SAFB2 (UniProt Q14151)	inactive: 0.235
RSL1D1 (UniProt O76021)	inactive: 0.374
RSPRY1 (UniProt Q96DX4)	inactive: -0.176
SDHC (UniProt Q99643)	inactive: -0.068
SDHAF4 (UniProt Q5VUM1)	inactive: -0.014
RTF2 (UniProt Q9BY42)	inactive: -0.017
SEC23IP (UniProt Q9Y6Y8)	inactive: -0.008
SCAF11 (UniProt Q99590)	inactive: 0.148
SCCPDH (UniProt Q8NBX0)	inactive: -0.194
RRP9 (UniProt O43818)	inactive: 0.039
SCG3 (UniProt Q8WXD2)	inactive: -0.116
SEC23A (UniProt Q15436)	inactive: -0.027
RRP12 (UniProt Q5JTH9)	inactive: 0.066
RSRC1 (UniProt Q96IZ7)	inactive: -0.01
SASH1 (UniProt O94885)	inactive: 0.054
